The values that follow come from patent US20240262906A1 (WELLMARKER BIO, published 2024).

These are yes or no findings as the source states them, for the method shown. Some binding calls cover weakened binding; strength is not graded here.

The experiment deals with T1, IGSF1 overexpressed on cells (NCI-H292 IGSF1 O/E; HEK293E IGSF1 O/E) (human) (UniProt Q8N6C5).
T1 sequence: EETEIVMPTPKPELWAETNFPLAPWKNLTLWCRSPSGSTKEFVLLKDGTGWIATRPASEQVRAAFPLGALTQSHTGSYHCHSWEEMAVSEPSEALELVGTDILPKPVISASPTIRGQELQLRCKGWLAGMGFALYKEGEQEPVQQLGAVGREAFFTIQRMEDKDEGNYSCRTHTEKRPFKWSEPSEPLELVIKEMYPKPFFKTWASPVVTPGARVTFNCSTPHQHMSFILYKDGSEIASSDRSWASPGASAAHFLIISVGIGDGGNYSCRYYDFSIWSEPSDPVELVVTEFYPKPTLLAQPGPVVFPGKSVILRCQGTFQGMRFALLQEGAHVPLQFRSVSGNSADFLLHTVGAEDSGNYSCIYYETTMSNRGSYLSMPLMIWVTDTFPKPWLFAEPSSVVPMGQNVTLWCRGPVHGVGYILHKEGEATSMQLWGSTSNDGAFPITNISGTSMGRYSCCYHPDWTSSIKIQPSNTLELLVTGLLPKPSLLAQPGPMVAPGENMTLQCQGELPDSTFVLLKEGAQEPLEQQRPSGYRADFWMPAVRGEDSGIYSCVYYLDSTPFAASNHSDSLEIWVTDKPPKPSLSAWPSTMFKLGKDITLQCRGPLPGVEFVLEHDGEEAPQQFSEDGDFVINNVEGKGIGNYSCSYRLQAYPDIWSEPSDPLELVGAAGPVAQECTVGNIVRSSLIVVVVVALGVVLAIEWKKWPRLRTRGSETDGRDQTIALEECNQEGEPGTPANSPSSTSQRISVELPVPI
The experiment is described as follows: flow cytometry on IGSF1 O/E cells (NCI-H292, HEK293E) transfected with scramble RNA; binding fell when IGSF1 was knocked down with shIGSF1.

B1: WM-A1-3389 antibody (antibody, human IgG1, kappa, V domains shown)
VH: QVQLVQSGAEVKRPGSSVKVSCKASGGTFSTYAISWVRQAPGQGLEWMGRIIPFVGTVDYAQKFQDRVTITADKSTNTAYMELSSLRSEDTAVYYCVRDGGRSYFDSWGPGILVTVSS
VL: QFVLTQPPSVSAAPGQDVIISCSGNTSNIGSNLVSWFQQFPETAPKLLIYDNHKRPSGISDRFSGTKSGTSASLAISGLQSEDEADYYCVAWDDSLNGYVFGTGTKVTVLR
notes: Human antibody from a phage library, converted to whole IgG; also called anti-IGSF1 antibody
Turning to B1, the binding entry is recorded as “binds”.
